# Laboratory results reported in the odorant receptor screen of Mainland et al. (2015).
# Several values for one entry are separate records, joined by “and”; a condition that tells them apart may be missing. Identical values can stand only once. The list shows a part of the results. Single wells; the ratio to wells without odorant was worked out here, and repeats agree poorly.
# Assays:
# Assay in all cases: odorant receptor activation (CRE luciferase / Renilla) (fold of no-odor wells); higher = more activation
# Conditions in all cases: 100 µM
# OR14L1 clone 1029 = system: OR14L1 clone 1029
# OR1A1 P285S clone 1531 = system: OR1A1 P285S clone 1531
# OR1A1 R128H clone 1528 = system: OR1A1 R128H clone 1528
# OR1A1 V233M clone 1287 = system: OR1A1 V233M clone 1287
# OR1A1 V233M clone 1530 = system: OR1A1 V233M clone 1530
# OR1A1 clone 1529 = system: OR1A1 clone 1529
# OR1A2 clone 1158 = system: OR1A2 clone 1158
# OR1C1 clone 1044 = system: OR1C1 clone 1044
# OR1D2 clone 1376 = system: OR1D2 clone 1376
# OR1D5 clone 1289 = system: OR1D5 clone 1289
# OR1D5 clone 1692 = system: OR1D5 clone 1692
# OR1E1 clone 1257 = system: OR1E1 clone 1257
# OR1E1 clone 1546 = system: OR1E1 clone 1546
# OR1E2 C27R clone 1447 = system: OR1E2 C27R clone 1447
# OR1E2 clone 1517 = system: OR1E2 clone 1517
# OR1F1 F75S clone 1281 = system: OR1F1 F75S clone 1281
# OR1F12 clone 1694 = system: OR1F12 clone 1694
# OR1G1 clone 1488 = system: OR1G1 clone 1488
# [1] = system: OR1I1 P139R/Y252S clone 1468
# OR1J1 clone 1696 = system: OR1J1 clone 1696
SMILES,odorant receptor activation (OR14L1 clone 1029),odorant receptor activation (OR1A1 P285S clone 1531),odorant receptor activation (OR1A1 R128H clone 1528),odorant receptor activation (OR1A1 V233M clone 1287),odorant receptor activation (OR1A1 V233M clone 1530),odorant receptor activation (OR1A1 clone 1529),odorant receptor activation (OR1A2 clone 1158),odorant receptor activation (OR1C1 clone 1044),odorant receptor activation (OR1D2 clone 1376),odorant receptor activation (OR1D5 clone 1289),odorant receptor activation (OR1D5 clone 1692),odorant receptor activation (OR1E1 clone 1257),odorant receptor activation (OR1E1 clone 1546),odorant receptor activation (OR1E2 C27R clone 1447),odorant receptor activation (OR1E2 clone 1517),odorant receptor activation (OR1F1 F75S clone 1281),odorant receptor activation (OR1F12 clone 1694),odorant receptor activation (OR1G1 clone 1488),odorant receptor activation [1],odorant receptor activation (OR1J1 clone 1696)
CS [methanethiol],1.14,1.07,0.943,1.69 and 0.835,0.895,0.803,0.972,1.05,1.26,0.812,0.555,0.858,0.859,1.11,1.07,0.871,0.753,0.926,0.654,0.702
CCOc1cc(C=O)ccc1O [ethyl vanillin],1.37 and 1.4,1.22 and 2.85 and 1.19,0.997 and 2.12 and 1.26,2.28 and 2.37 and 1.07,1.63 and 2.61 and 1.16,0.99 and 2.77 and 1.29,1.94 and 1.27,1.29 and 1.03,1.14 and 1.12,1.26 and 1.17,0.882,0.882 and 0.973,1.37,1.14 and 1.18,1.16 and 2.5 and 1.31,0.952 and 0.994,0.667,1.31 and 1.66 and 0.963,1.04 and 1.18 and 0.917,0.679
CCC(C)=O [2-butanone],2.99,1.04,0.946,,1.31,1.11,0.858,3.2,0.679,1.05,1.05,1.65,1.18,0.711,1.21,0.93,0.868,1.23,1.1,0.834
CCCCOC(C)=O [butyl acetate],0.772,1.16,0.958,2.57 and 0.922,1.02,0.995,0.941,1.1,0.157,0.712,0.683,0.82,0.759,0.134,0.937,1.1,0.768,0.902,1.31,1.08
